Reference: the supplement of paper PMC10849652
The list shows a part of the results.

Chains of the proteins cited; added tags and fusions are not shown. Lines headed by an entry give the natural chain unless they say otherwise; changes in a name come on top.
UniProt Q9NW13: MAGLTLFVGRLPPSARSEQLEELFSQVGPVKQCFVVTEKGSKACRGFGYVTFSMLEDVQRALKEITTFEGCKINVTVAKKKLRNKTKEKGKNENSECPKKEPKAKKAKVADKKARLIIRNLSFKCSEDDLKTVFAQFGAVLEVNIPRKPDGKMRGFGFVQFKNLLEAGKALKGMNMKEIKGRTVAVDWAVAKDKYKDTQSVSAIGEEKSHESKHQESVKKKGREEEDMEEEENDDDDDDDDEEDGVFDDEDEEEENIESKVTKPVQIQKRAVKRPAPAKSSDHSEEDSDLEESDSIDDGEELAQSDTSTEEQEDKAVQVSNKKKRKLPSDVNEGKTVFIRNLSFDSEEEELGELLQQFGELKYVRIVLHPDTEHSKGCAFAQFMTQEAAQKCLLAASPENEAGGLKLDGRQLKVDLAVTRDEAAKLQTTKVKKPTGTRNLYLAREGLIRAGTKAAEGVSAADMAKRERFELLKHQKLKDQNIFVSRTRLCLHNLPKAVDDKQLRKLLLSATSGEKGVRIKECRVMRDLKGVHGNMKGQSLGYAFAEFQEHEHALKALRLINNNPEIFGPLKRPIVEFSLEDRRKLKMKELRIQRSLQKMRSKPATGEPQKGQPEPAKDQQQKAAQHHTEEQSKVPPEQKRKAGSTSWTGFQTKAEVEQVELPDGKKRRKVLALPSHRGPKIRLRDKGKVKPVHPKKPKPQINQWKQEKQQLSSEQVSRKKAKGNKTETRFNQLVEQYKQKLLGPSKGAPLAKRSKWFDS
UniProt Q8N0V3: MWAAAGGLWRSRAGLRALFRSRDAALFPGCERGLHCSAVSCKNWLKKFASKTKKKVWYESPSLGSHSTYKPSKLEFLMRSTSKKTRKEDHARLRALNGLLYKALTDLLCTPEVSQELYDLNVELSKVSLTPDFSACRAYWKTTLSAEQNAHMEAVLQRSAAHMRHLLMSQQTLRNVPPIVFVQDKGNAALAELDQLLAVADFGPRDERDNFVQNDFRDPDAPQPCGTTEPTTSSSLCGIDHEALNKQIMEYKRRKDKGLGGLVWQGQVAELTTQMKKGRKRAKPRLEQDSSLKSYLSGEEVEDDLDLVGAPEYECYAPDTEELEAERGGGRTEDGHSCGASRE
UniProt Q9H477: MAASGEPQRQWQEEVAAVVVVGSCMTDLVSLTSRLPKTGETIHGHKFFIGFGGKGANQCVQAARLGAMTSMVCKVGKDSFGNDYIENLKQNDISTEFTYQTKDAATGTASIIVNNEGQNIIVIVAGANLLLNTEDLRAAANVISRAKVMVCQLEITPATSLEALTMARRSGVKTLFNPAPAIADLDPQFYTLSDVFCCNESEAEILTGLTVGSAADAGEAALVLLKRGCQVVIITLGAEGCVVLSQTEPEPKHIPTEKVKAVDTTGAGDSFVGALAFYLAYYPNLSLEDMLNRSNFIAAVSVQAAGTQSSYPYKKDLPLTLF
UniProt Q8TEB9: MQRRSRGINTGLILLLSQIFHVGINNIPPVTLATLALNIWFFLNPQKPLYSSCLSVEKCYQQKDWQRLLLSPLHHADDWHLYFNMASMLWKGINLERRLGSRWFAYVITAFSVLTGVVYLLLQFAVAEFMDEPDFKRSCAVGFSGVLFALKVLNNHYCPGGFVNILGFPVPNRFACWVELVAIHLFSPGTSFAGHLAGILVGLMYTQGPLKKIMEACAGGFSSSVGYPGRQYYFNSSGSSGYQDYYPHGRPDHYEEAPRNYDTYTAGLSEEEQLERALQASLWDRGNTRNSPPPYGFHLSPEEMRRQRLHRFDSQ
UniProt Q96EN9: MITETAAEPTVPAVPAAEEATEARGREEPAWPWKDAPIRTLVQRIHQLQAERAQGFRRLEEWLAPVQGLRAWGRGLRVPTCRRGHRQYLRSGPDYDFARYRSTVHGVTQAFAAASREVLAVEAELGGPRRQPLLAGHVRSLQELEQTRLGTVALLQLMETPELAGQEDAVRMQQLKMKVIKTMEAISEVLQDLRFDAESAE
UniProt P82980: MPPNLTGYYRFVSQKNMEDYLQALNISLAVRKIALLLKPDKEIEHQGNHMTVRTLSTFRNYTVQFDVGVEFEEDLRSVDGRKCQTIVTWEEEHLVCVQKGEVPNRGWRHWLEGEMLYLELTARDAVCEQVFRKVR
UniProt Q8TC12: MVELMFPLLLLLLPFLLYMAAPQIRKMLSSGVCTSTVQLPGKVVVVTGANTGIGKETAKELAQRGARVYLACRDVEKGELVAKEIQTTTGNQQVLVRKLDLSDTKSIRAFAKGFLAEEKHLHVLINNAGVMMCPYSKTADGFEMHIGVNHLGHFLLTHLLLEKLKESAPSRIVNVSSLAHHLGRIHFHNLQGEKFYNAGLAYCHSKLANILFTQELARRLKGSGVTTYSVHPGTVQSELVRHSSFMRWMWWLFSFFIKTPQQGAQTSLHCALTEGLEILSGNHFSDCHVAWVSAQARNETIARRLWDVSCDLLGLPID
UniProt O14593: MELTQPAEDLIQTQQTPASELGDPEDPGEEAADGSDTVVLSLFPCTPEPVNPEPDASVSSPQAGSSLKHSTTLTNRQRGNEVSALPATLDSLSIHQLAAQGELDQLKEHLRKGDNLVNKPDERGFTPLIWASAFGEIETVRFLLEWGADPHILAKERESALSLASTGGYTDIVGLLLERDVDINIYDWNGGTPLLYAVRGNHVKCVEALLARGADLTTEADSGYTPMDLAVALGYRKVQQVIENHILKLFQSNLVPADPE
UniProt Q5RL73: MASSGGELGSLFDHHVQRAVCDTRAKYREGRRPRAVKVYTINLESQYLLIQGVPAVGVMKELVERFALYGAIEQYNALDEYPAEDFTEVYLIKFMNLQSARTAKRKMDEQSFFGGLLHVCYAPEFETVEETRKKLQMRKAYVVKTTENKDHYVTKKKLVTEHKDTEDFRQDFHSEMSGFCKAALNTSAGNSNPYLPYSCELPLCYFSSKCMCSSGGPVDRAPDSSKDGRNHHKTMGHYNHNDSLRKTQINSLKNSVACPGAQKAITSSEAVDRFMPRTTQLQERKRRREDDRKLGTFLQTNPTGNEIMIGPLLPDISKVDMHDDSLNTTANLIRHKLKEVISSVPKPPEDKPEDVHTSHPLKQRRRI
UniProt O15211: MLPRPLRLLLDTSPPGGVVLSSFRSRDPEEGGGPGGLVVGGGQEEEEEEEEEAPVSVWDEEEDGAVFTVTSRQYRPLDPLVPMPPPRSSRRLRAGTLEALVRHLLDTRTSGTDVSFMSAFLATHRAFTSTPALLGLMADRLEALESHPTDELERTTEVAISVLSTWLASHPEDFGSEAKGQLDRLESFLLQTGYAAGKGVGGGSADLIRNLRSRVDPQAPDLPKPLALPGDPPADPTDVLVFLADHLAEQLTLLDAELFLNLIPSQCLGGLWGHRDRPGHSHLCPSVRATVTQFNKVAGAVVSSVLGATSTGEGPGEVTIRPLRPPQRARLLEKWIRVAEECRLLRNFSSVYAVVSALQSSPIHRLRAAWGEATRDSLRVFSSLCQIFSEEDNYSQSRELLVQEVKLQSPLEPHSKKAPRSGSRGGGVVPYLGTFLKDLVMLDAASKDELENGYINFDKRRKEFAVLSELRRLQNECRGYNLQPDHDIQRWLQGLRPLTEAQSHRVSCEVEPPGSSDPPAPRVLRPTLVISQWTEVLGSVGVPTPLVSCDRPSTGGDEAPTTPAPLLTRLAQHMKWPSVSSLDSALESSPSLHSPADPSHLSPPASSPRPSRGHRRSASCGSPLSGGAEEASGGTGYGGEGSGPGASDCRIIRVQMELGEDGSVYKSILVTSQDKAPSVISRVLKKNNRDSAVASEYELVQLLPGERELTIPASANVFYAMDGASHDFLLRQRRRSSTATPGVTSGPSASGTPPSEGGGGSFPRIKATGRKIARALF
UniProt Q9HCJ3: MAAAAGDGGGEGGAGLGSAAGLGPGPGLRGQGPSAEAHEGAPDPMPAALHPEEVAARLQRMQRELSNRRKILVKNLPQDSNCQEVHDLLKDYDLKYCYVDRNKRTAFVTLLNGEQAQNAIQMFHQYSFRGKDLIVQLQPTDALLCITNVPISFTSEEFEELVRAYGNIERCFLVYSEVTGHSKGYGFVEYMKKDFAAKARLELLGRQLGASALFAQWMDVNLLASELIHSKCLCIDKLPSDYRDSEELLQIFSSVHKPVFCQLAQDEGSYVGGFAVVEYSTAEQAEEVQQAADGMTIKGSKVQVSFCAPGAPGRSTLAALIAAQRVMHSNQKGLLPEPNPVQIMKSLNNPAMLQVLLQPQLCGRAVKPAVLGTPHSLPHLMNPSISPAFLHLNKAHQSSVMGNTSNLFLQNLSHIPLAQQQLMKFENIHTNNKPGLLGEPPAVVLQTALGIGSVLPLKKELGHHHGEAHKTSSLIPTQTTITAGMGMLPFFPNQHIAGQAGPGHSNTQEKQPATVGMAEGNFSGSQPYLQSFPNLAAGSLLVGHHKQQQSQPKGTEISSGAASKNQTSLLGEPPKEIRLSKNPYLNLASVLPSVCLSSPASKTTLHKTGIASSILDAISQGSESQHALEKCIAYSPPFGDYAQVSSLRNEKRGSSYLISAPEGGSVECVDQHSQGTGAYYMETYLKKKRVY
UniProt A6NEQ0: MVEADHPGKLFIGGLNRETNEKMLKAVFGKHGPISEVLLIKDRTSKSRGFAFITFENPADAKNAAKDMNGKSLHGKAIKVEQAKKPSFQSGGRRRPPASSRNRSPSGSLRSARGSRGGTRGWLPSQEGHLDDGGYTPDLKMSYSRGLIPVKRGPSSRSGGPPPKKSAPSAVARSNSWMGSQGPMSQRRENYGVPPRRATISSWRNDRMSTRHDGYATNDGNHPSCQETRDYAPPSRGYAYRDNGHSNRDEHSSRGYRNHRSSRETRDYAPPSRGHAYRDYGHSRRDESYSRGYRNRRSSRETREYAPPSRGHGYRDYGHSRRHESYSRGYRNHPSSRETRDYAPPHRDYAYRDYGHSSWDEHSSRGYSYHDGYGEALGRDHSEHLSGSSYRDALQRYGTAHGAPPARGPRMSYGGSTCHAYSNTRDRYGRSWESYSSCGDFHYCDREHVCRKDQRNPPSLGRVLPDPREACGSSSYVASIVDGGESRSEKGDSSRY
UniProt O43251: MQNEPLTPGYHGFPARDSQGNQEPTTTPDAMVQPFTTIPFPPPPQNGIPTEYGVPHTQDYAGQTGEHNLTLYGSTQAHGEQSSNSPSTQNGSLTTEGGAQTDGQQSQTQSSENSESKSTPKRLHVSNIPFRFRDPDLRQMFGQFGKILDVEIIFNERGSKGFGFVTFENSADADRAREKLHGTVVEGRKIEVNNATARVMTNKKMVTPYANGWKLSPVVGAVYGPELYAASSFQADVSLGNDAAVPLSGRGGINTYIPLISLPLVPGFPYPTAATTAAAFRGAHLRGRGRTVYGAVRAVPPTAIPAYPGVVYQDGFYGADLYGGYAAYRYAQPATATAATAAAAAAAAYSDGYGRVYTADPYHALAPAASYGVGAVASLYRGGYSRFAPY
UniProt O94761: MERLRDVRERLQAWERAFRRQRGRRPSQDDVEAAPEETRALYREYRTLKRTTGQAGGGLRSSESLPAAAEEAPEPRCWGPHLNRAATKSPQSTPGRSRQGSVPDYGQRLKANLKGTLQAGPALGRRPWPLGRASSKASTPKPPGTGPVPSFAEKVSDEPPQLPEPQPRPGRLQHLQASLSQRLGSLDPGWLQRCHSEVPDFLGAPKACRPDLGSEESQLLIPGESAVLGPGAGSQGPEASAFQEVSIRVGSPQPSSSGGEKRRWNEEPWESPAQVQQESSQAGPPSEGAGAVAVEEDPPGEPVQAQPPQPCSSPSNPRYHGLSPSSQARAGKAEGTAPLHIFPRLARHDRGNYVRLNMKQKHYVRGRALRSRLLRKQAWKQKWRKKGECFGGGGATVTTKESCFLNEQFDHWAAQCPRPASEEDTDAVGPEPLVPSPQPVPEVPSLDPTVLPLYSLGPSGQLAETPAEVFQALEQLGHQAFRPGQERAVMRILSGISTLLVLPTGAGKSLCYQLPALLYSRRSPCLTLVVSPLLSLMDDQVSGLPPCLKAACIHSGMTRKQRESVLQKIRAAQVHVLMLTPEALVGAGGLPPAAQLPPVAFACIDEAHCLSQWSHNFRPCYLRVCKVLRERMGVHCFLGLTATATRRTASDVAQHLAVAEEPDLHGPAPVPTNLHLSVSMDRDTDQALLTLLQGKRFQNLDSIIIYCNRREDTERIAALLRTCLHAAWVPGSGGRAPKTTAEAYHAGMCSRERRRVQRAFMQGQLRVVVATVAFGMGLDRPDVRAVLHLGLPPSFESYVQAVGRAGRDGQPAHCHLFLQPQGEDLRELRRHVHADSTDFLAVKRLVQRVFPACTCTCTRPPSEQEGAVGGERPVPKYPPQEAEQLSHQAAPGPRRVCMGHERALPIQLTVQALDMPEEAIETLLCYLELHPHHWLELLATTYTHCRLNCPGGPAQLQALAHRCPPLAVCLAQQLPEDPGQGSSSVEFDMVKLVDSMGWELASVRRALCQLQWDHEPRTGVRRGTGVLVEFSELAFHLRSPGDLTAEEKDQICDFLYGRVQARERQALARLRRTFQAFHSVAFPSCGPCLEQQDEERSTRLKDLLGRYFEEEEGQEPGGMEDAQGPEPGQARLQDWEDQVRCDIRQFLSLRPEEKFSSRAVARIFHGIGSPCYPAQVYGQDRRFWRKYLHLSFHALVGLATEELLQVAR

Tests used:
Assay in all cases: log2 fold change, soluble protein after heating vs DMSO (PISA); higher = thermal stabilisation; K562 lysate, 10 uM; active = over 0.2 and 3.5 SD of the protein, either way, in both replicates (recomputed)
alvocidib = compound: CN1CC[C@H](c2c(O)cc(O)c3c(=O)cc(-c4ccccc4Cl)oc23)[C@H](O)C1 [alvocidib]
In short: (§1)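 Following dounce homogenisation of K562 pellets in PBS pH 7.4 with 1 mM MgCl2, crude extract at 1 mg/mL protein was incubated for 30 min with 10 μM compound. Aliquots were then heated for 3 min over 48°C-58°C and pooled, NP-40 was added to 0.5% at 4°C, and soluble protein was recovered as the supernatant at 21,000xg for 90 min. Channel-sum-equalised TMTpro 16plex LC-MS/MS quantified this protein. Each value, from duplicates, is a log-two fold change in thermal stability relative to solvent controls.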

Tubastatin A = compound: CN1CCc2c(c3ccccc3n2Cc2ccc(C(=O)NO)cc2)C1 [Tubastatin A]
In short: as §1

[1] = compound: CNC(=O)C1=CC=CC=C1NC2=NC(=NC=C2Cl)NC3=C(C=C(C=C3)N4CCOCC4)OC
In short: as §1

defactinib = compound: CNC(=O)c1ccc(Nc2ncc(C(F)(F)F)c(NCc3nccnc3N(C)S(C)(=O)=O)n2)cc1 [defactinib]
In short: as §1

[2] = compound: CNc1nc(-c2ccc3c(N)n[nH]c3c2)cc(N2C[C@@H](C(=O)NC3CCCCC3)CC[C@H]2C)n1
In short: as §1

encorafenib = compound: COC(=O)N[C@@H](C)CNc1nccc(-c2cn(C(C)C)nc2-c2cc(Cl)cc(NS(C)(=O)=O)c2F)n1 [encorafenib]
In short: as §1

[3] = compound: COC(=O)[C@H](CCSC)NC(=O)C1=C(C=C(C=C1)NC[C@H](CS)N)C2=CC=CC=C2
In short: as §1

alisertib = compound: COc1cc(Nc2ncc3c(n2)-c2ccc(Cl)cc2C(c2c(F)cccc2OC)=NC3)ccc1C(=O)O [alisertib]
In short: as §1

[4] = compound: COc1cc2nc(-c3cc(F)ccc3O)nc(N[C@@H]3CNC[C@H]3C(C)(C)O)c2cc1OC
In short: as §1

gefitinib = compound: COc1cc2ncnc(Nc3ccc(F)c(Cl)c3)c2cc1OCCCN1CCOCC1 [gefitinib]
In short: as §1

lapatinib = compound: CS(=O)(=O)CCNCc1ccc(-c2ccc3ncnc(Nc4ccc(OCc5cccc(F)c5)c(Cl)c4)c3c2)o1 [lapatinib]
In short: as §1

pictilisib = compound: CS(=O)(=O)N1CCN(Cc2cc3nc(-c4cccc5[nH]ncc45)nc(N4CCOCC4)c3s2)CC1 [pictilisib]
In short: as §1

crizotinib = compound: C[C@@H](Oc1cc(-c2cnn(C3CCNCC3)c2)cnc1N)c1c(Cl)ccc(F)c1Cl [crizotinib]
In short: as §1

[5] = compound: C[C@H](C1=CC=C(C=C1)C(=O)NC2=C3C=CNC3=NC=C2)N
In short: as §1

duvelisib = compound: C[C@H](Nc1ncnc2nc[nH]c12)c1cc2cccc(Cl)c2c(=O)n1-c1ccccc1 [duvelisib]
In short: as §1

gandotinib = compound: Cc1cc(Nc2cc(CN3CCOCC3)c3nc(C)c(Cc4ccc(Cl)cc4F)n3n2)n[nH]1 [gandotinib]
In short: as §1

tozasertib = compound: Cc1cc(Nc2cc(N3CCN(C)CC3)nc(Sc3ccc(NC(=O)C4CC4)cc3)n2)n[nH]1 [tozasertib]
In short: as §1

doramapimod = compound: Cc1ccc(-n2nc(C(C)(C)C)cc2NC(=O)Nc2ccc(OCCN3CCOCC3)c3ccccc23)cc1 [doramapimod]
In short: as §1

bafetinib = compound: Cc1ccc(NC(=O)c2ccc(CN3CC[C@H](N(C)C)C3)c(C(F)(F)F)c2)cc1Nc1nccc(-c2cncnc2)n1 [bafetinib]
In short: as §1

[6] = compound: Cc1cccc(CC(=O)N2CCc3c2ccc(-c2cn(C)c4ncnc(N)c24)c3F)n1
In short: as §1

Measured: log2 fold change

RBBP7 isoform 2 (UniProt Q16576)
inactive: alvocidib -0.005 | Tubastatin A -0.004 | [1] -0.021 | defactinib -0.023 | [2] -0.028 | encorafenib 0.03 | [3] -0.034 | alisertib 0.03 | [4] -0.003 | gefitinib 0.002 | lapatinib 0.002 | pictilisib 0.027 | crizotinib 0.008 | [5] -0.213 | duvelisib 0.025 | gandotinib 0.019 | tozasertib 0.017 | doramapimod 0.035 | bafetinib 0.018 | [6] -0.011

RBM28 (UniProt Q9NW13)
inactive: alvocidib 0.015 | Tubastatin A -0.101 | [1] 0.006 | defactinib -0.018 | [2] 0.022 | encorafenib 0.018 | [3] 0.01 | alisertib 0.009 | [4] -0.007 | gefitinib -0.003 | lapatinib -0.012 | pictilisib -0.018 | crizotinib -0.05 | [5] -0.005 | duvelisib -0.022 | gandotinib -0.089 | tozasertib -0.023 | doramapimod 0.09 | bafetinib -0.04 | [6] 0.024

RBFA (UniProt Q8N0V3)
inactive: alvocidib 0.122 | Tubastatin A 0.011 | [1] 0.127 | alisertib -0.003 | gefitinib -0.332 | crizotinib -0.127 | [5] -0.121 | gandotinib 0.117 | doramapimod -0.119 | [6] -0.132

Fetched one by one from the list above (2):
RBM28 (UniProt Q9NW13)
inactive: alvocidib 0.015 | Tubastatin A -0.101 | [1] 0.006 | defactinib -0.018 | [2] 0.022 | encorafenib 0.018 | [3] 0.01 | alisertib 0.009 | [4] -0.007 | gefitinib -0.003 | lapatinib -0.012 | pictilisib -0.018 | crizotinib -0.05 | [5] -0.005 | duvelisib -0.022 | gandotinib -0.089 | tozasertib -0.023 | doramapimod 0.09 | bafetinib -0.04 | [6] 0.024

RBBP7 isoform 2 (UniProt Q16576)
inactive: alvocidib -0.005 | Tubastatin A -0.004 | [1] -0.021 | defactinib -0.023 | [2] -0.028 | encorafenib 0.03 | [3] -0.034 | alisertib 0.03 | [4] -0.003 | gefitinib 0.002 | lapatinib 0.002 | pictilisib 0.027 | crizotinib 0.008 | [5] -0.213 | duvelisib 0.025 | gandotinib 0.019 | tozasertib 0.017 | doramapimod 0.035 | bafetinib 0.018 | [6] -0.011

(list continues)

RFWD3 (UniProt Q6PCD5)
inactive: alvocidib -0.057 | Tubastatin A 0.065 | [1] 0.051 | defactinib 0.082 | [2] -0.057 | encorafenib 0.1 | [3] -0.052 | alisertib 0.114 | gefitinib -0.057 | pictilisib -0.12 | crizotinib -0.066 | [5] 0.036 | duvelisib 0.041 | gandotinib 0.004 | tozasertib -0.037 | doramapimod 0.036 | bafetinib -0.04 | [6] 0.107

RBKS (UniProt Q9H477)
inactive: alvocidib -0.184 | Tubastatin A 0.359 | [2] -0.04 | [5] -0.057 | duvelisib 0.072 | gandotinib 0.012 | [6] -0.059

RHBDD1 (UniProt Q8TEB9)
inactive: alvocidib -0.018 | defactinib 0.024 | encorafenib 0.063 | [3] 0.054 | [4] 0.02 | lapatinib 0.06 | pictilisib -0.216 | [5] 0.036 | gandotinib -0.118 | tozasertib -0.071 | bafetinib -0.133 | [6] -0.028

RCBTB1 (UniProt Q8NDN9)
inactive: alvocidib -0.013 | Tubastatin A -0.174 | [1] -0.029 | alisertib 0.249 | gefitinib -0.065 | crizotinib -0.085 | [5] 0.202 | gandotinib -0.046 | doramapimod 0.016 | [6] 0.039

REX1BD (UniProt Q96EN9)
inactive: alvocidib 0.008 | Tubastatin A -0.004 | [1] -0.016 | [2] 0.101 | encorafenib 0.074 | [3] 0.124 | alisertib 0.062 | gefitinib -0.163 | crizotinib -0.061 | [5] 0.076 | duvelisib 0.055 | gandotinib -0.084 | tozasertib -0.052 | doramapimod -0.003 | [6] -0.167

RBP5 (UniProt P82980)
inactive: alvocidib -0.27 | Tubastatin A -0.04 | [1] 0.019 | defactinib 0.021 | [2] 0.184 | encorafenib 0.173 | [3] 0.021 | alisertib -0.085 | [4] -0.044 | gefitinib -0.07 | lapatinib -0.051 | crizotinib 0.092 | [5] -0.207 | duvelisib 0.032 | gandotinib 0.136 | tozasertib -0.025 | doramapimod 0.135 | [6] -0.051

RDH11 (UniProt Q8TC12)
inactive: alvocidib -0.071 | Tubastatin A 0.031 | [1] 0.011 | defactinib 0 | [2] 0.1 | encorafenib 0.092 | [3] 0.149 | alisertib -0.009 | [4] 0.082 | gefitinib -0.019 | lapatinib -0.035 | crizotinib -0.034 | [5] -0.11 | duvelisib -0.011 | tozasertib 0.009 | doramapimod 0.041
active: gandotinib 0.298 | [6] 0.328

RFXANK (UniProt O14593)
inactive: alvocidib 0.095 | Tubastatin A -0.103 | [1] 0.105 | defactinib 0.15 | [2] -0.033 | encorafenib 0.047 | [3] -0.01 | [4] 0.102 | lapatinib 0.154 | pictilisib 0 | crizotinib -0.022 | [5] 0.072 | duvelisib 0.03 | gandotinib -0.079 | tozasertib 0.053 | doramapimod 0.032 | bafetinib -0.11 | [6] -0.044

REXO5 (UniProt Q96IC2)
inactive: alvocidib 0.018 | Tubastatin A -0.012 | [1] 0.036 | defactinib 0.033 | [2] 0.023 | encorafenib 0.055 | [3] 0.103 | alisertib -0.039 | gefitinib 0.054 | pictilisib -0.012 | [5] -0.091 | duvelisib -0.014 | gandotinib -0.056 | tozasertib 0.038 | bafetinib -0.065 | [6] 0.012

RBM48 isoform 2 (UniProt Q5RL73)
inactive: alvocidib -0.06 | Tubastatin A -0.141 | [1] -0.007 | defactinib -0.213 | [2] 0.004 | encorafenib 0.081 | [3] -0.04 | crizotinib -0.039 | [5] 0.055 | duvelisib 0.049 | gandotinib 0.08 | tozasertib -0.008 | doramapimod 0.016 | [6] -0.09

RETSAT (UniProt Q6NUM9)
inactive: alvocidib -0.114 | Tubastatin A 0.179 | [1] -0.071 | defactinib -0.045 | [2] 0.402 | encorafenib 0.079 | [3] 0.025 | [4] -0.059 | lapatinib 0.056 | pictilisib -0.048 | crizotinib -0.329 | [5] -0.159 | duvelisib 0.039 | gandotinib 0.167 | tozasertib -0.024 | doramapimod 0.006 | bafetinib -0.097 | [6] 0.391

RGL2 (UniProt O15211)
inactive: alvocidib 0.05 | Tubastatin A 0.098 | [1] 0.034 | [2] 0.139 | alisertib -0.005 | [4] 0.065 | gefitinib 0.228 | lapatinib -0.168 | crizotinib 0.026 | [5] 0.057 | duvelisib 0.069 | gandotinib -0.108 | doramapimod -0.043 | [6] 0.169

REXO1 (UniProt Q8N1G1)
inactive: alvocidib 0.043 | Tubastatin A -0.135 | [1] 0.138 | alisertib 0.023 | gefitinib -0.143 | pictilisib 0.017 | crizotinib 0.033 | [5] -0.068 | gandotinib 0.02 | doramapimod -0.105 | bafetinib -0.428 | [6] 0.078

RAVER2 (UniProt Q9HCJ3)
inactive: alvocidib 0.059 | Tubastatin A 0.022 | [1] -0.12 | [2] 0.175 | encorafenib 0.091 | [3] -0.359 | crizotinib -0.117 | [5] -0.032 | duvelisib -0.01 | gandotinib 0.261 | tozasertib 0.05 | doramapimod -0.04 | [6] 0.15

RBM47
inactive: alvocidib -0.131 | Tubastatin A 0.206 | [1] 0.19 | defactinib -0.178 | [2] -0.112 | alisertib 0.462 | [4] 0.136 | gefitinib -0.005 | lapatinib -0.046 | [5] -0.222 | duvelisib 0.09 | gandotinib 0.112 | [6] 0.275

RBMY1E (UniProt A6NEQ0)
inactive: alvocidib -0.105 | defactinib 0.061 | [2] -0.02 | encorafenib -0.044 | [3] 0.03 | [4] -0.063 | lapatinib 0.06 | pictilisib -0.006 | crizotinib -0.285 | [5] -0.204 | duvelisib -0.001 | gandotinib 0.014 | tozasertib -0.047 | doramapimod 0.181 | bafetinib 0.027 | [6] 0.12

RBFOX2 isoform 8 (UniProt O43251)
inactive: alvocidib 0.019 | Tubastatin A -0.046 | [1] 0.237 | [2] 0.111 | encorafenib -0.035 | [3] 0.174 | [4] -0.029 | lapatinib -0.137 | pictilisib 0.016 | crizotinib 0.17 | [5] 0.108 | duvelisib 0.021 | gandotinib -0.157 | tozasertib 0.074 | doramapimod -0.185 | bafetinib -0.175 | [6] 0.115

RECQL4 (UniProt O94761)
inactive: alvocidib 0.042 | Tubastatin A -0.045 | [1] 0.104 | defactinib 0.049 | [2] -0.02 | encorafenib 0.023 | [3] 0.056 | alisertib 0.028 | gefitinib 0.065 | pictilisib -0.032 | crizotinib -0.079 | [5] -0.039 | duvelisib 0.061 | tozasertib -0.014 | doramapimod 0.029 | bafetinib -0.099 | [6] 0.146
active: gandotinib -0.472
